Taken from: PubChem BioAssay AID504774 (Drosophila RNAi Screening Center, 2011)

Screen: 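Genes required for cells to withstand methyl methanesulphonate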 (primary screen)
Cell system: Drosophila Kc167 cells
Reagents: long dsRNA against Drosophila genes, about 0.25 µg dsRNA per well
Timing: about 6 days: 3 days knock-down, then 3 days with or without MMS
Challenge: methyl methanesulphonate 0.004% (w/v) for 3 days after knock-down
Measured: 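ATP-dependent luminescence as a measure of live cells in MMS-exposed wells, quantile normalised within each plate, with replicate values also given as a mean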
Scale: mean viability with MMS: higher = more surviving cells after MMS
The deposit covers about 23,000 reagents; this is a random part of those with a known target gene and a result. 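Values are quantile-normalised luminescence on an arbitrary scale; higher means more cells surviving MMS.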 The numbers tell different reagents against one gene apart. Further read-outs or replicates are left out here.

| gene knocked down | dsRNA no. | mean viability with MMS |
| --- | --- | --- |
| PIG-G (Phosphatidylinositol glycan anchor biosynthesis class G) | 1 | 3.24e6 |
| CG30470 (retired record) | 1 | 3.19e6 |
| CG30470 (retired record) | 2 | 3.19e6 |
| CG30470 (retired record) | 3 | 3.51e6 |
| CG30470 (retired record) | 4 | 3.52e6 |
| CG30470 (retired record) | 5 | 2.99e6 |
| CG14331 | 1 | 3.66e6 |
| CG43394 | 1 | 3.26e6 |
| CG6959 | 1 | 3.65e6 |
| CR31427 (pseudo) | 1 | 3.53e6 |
| CG8187 | 1 | 3.66e6 |
| BHD (Birt-Hogg-Dube) | 1 | 3.66e6 |
| BHD (Birt-Hogg-Dube) | 2 | 3.55e6 |
| VGlut (Vesicular glutamate transporter) | 1 | 3.67e6 |
| VGlut (Vesicular glutamate transporter) | 2 | 3.38e6 |
| CG32152 | 1 | 3.52e6 |
| Prx1 (Peroxiredoxin 1) | 1 | 3.51e6 |
| Ctr1C (Copper transporter 1C) | 1 | 3.61e6 |
| Pgcl (Pepsinogen C-like) | 1 | 3.55e6 |
| CG14071 | 1 | 3.74e6 |
| CG34367 | 1 | 3.55e6 |
| CG34367 | 2 | 3.71e6 |
| Pex13 (Peroxin 13) | 1 | 3.57e6 |
| Vti1b (Vesicle transport through interaction with t-SNAREs 1b) | 1 | 3.85e6 |
| Vti1b (Vesicle transport through interaction with t-SNAREs 1b) | 2 | 3.46e6 |
| Tap42 (Two A-associated protein of 42kDa) | 1 | 3.60e6 |
| twf (twinfilin) | 1 | 3.54e6 |
| Gr63a (Gustatory receptor 63a) | 1 | 3.57e6 |

No new results follow: entries from further up.
| gene knocked down | dsRNA no. | mean viability with MMS |
| --- | --- | --- |
| Ctr1C (Copper transporter 1C) | 1 | 3.61e6 |
| Pgcl (Pepsinogen C-like) | 1 | 3.55e6 |
| CG14071 | 1 | 3.74e6 |
